Results as given in patent US20250281621.

Chains of the proteins cited; added tags and fusions are not shown. A line that says so, or that is headed by a name, gives the form on record, which may keep a tag or linker.
Glypican-3 (GPC3), endogenous (Homo sapiens), one chain, as listed by the source, chain 2 of 2: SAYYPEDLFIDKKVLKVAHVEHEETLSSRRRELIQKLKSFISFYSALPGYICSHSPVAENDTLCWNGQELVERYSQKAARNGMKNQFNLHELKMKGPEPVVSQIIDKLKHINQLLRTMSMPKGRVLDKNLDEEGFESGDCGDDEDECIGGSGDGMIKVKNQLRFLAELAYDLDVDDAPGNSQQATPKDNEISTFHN

Key:
[1] = tested on: Glypican-3 (GPC3), endogenous (Homo sapiens); assay: binding assay; details: fully 2'-OMe, protein on the cell surface, protein details: endogenous on Hep3B, HepG2, NCI-H446, Huh7 cells
Glypican-3 (GPC3) [2] = assay: binding assay; details: fully 2'-OMe, method not stated, purified recombinant protein
Glypican-3 (GPC3) [3] = assay: flow cytometry; details: fully 2'-OMe, protein on the cell surface
[4] = Hep3B cells, no refolding needed, data not shown, variant of GRX8 (Min9)

## CGUCAUCGGGUUGCUACCCAAGGUCAAGAGACGAUGACG [GRX46]
[1]; similar enhanced binding and refolding behavior, data not shown, variant of GRX8 (Min9)
  binding result: binds
Glypican-3 (GPC3) [2]; kon 5.54E4 1/Ms, koff 7.82E-4 1/s, variant of GRX8 (Min9)
  Kd: 15 nM

## CGUCAUCGGGUUGCUACCCAAGGACAAGAGUCGAUGACG [GRX8 (Min9)]
[1]; high affinity, improved by refolding, FAM-GRX8 accumulates in Hep3B but not A549 (GPC3-) tumors in mice, variant of W2.S4.1_R6F_14 (clone F14)
  binding result: binds
Glypican-3 (GPC3) [2]; kon 6.19E4 1/Ms, koff 7.32E-4 1/s, variant of W2.S4.1_R6F_14 (clone F14)
  Kd: 13 nM

## AAGCCAUUACCGGGUUGCUACCCGAGGACAAGAGUCGAUGAUGCUU [Min3]
Glypican-3 (GPC3) [3]; GPC3- HEK293 control 444, variant of W2.S4.1_R6F_14 (clone F14), counted as no binding
  binding signal: 377 MFI

## CGUCAUCGGGUUGCUACCCAAGGUCAGGAGACGAUGACG [GRX8 triple 1]
[1]; [4]
  binding result: binds
Glypican-3 (GPC3) [2]; kon 1.12E5 1/Ms, koff 1.59E-4 1/s, listed as GRX8 with triple, variant of GRX8 (Min9)
  Kd: 1.41 nM

## CGUCAUCGGGUUGCUACCCAAGGCCAGGAGGCGAUGACG [GRX54 (GRX49-DM1 conjugate)]
[1]; DM1 conjugate, specific binding to Hep3B and NCI-H446, selectively kills GPC3+ cells, variant of GRX49
  binding result: binds

## CGUCAUCGGGUUGCUACCCAAGGCCAGGAGGCGAUGACG [GRX49]
[1]; Hep3B, HepG2, NCI-H446, Huh7, no refolding needed, data not shown, variant of GRX8 (Min9)
  binding result: binds
Glypican-3 (GPC3) [2]; kon 1.99E5 1/Ms, koff 1.46E-4 1/s, variant of GRX8 (Min9)
  Kd: 0.74 nM
Glypican-3 (GPC3) [3]; GPC3+ HEK293 cells, variant of GRX8 (Min9)
  Kd: 9 nM

## CGUCAUCGGGUUGCUACCCAAGGUCAGGUGACGAUGACG [GRX8 QUAD6]
[1]; [4]
  binding result: binds
Glypican-3 (GPC3) [2]; kon 2.01E5 1/Ms, koff 2.48E-4 1/s, variant of GRX8 (Min9)
  Kd: 1.24 nM

For some of these results: Where cells or extracts were used, other partners may take part. For some of these results: The direction of at least one scale is not stated here. For some of these results: The exact form of at least one protein or probe is not confirmed.
